Test results as given in PubChem BioAssay AID652016 (National Center for Advancing Translational Sciences (NCATS), 2013).
The inconclusive results got no clear call from the source; some entries with a clear call stand among them for comparison. Where the call is inconclusive, the potency comes from a doubtful curve fit. Active and inactive are the calls of the source. Calls follow the shape of the dose curve; as a rule, active = well fitted inhibition curve with a large enough effect; inconclusive = small, poorly fitted or top-dose-only effect; inactive = flat fitted curve, though single readings scatter.

Amino acid sequences for entries named in this document (tags omitted).
UniProt P08659, whole entry, looked up: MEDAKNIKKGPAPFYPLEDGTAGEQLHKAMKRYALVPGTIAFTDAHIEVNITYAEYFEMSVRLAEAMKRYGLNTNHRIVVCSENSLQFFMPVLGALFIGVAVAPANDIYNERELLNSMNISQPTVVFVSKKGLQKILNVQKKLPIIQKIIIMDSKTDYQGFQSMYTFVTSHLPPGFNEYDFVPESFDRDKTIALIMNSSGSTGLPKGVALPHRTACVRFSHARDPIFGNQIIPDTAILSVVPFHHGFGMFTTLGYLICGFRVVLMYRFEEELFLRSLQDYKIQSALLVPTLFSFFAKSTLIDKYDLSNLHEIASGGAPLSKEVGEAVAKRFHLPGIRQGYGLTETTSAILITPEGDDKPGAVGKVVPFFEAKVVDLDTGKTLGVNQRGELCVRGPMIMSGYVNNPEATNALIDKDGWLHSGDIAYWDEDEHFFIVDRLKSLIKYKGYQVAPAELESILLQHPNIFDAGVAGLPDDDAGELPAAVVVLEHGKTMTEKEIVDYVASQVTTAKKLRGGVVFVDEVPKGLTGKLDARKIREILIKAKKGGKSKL

Biological target: Luciferin 4-monooxygenase (Photinus pyralis) (UniProt P08659)
Assay: qHTS Assay for Inhibitors of Firefly Luciferase from the GSK Published Protein Kinase Inhibitor Set
Procedure, shortened: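 Purified P. pyralis luciferase, 10nM, with 10uM D-luciferin and 10uM ATP in 50mM Tris acetate pH 7.5, 10mM Mg acetate, 0.01% Tween-20, 0.05% BSA. Titration ~60uM to 300pM; luminescence read after about 5 min.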
Potency is read from the fitted curve at half-maximal effect.

SMILES: CCc1cccc(CC)c1C=Cc1cncc(C(=O)NC)c1
- Potency: inconclusive: 36.6 µM [inhibitor, partial curve, poor fit]

SMILES: Nc1nccc(-c2c(-c3ccc(F)cc3)ncn2C2CCNCC2)n1
- Potency: inconclusive: 23.1 µM [inhibitor, partial curve]

SMILES: CCOc1nccc2c1nc(-c1nonc1N)n2CC
- Potency: inactive

SMILES: CCn1c(-c2nonc2N)nc2ccccc21
- Potency: inactive

SMILES: Cc1ccc(C(=O)NC2CCC2)cc1-c1ccc(C(=O)NCC2CC2)cc1
- Potency: inconclusive: 29.1 µM [inhibitor, single point]

SMILES: c1ccc(Cc2nc3ccc(Nc4ncnc5ccccc45)cc3[nH]2)cc1
- Potency: active: 16.3 µM

SMILES: COc1cccc(-n2ncc3c(NN=Cc4ccc(S(C)(=O)=O)cc4)ncnc32)c1
- Potency: inconclusive: 18.3 µM [inhibitor, partial curve]

SMILES: O=C1NC(=O)C(c2cccc(Cl)c2)=C1Nc1ccc(Cl)c(C(=O)O)c1
- Potency: inactive

SMILES: O=C(Nc1n[nH]c2cc(-c3cc(F)ccc3F)ccc12)C1CC1
- Potency: inconclusive: 16.3 µM [inhibitor, partial curve, poor fit]

SMILES: O=C(Nc1n[nH]c2cc(-c3ccccc3)ccc12)C1CC1
- Potency: active: 18.3 µM

SMILES: COc1cc(Nc2nccc(Nc3ccc4c(C)[nH]nc4c3)n2)cc(OC)c1OC
- Potency: inconclusive: 18.3 µM [inhibitor, partial curve]

SMILES: CC1=C(C(=O)Nc2ccc3[nH]ncc3c2)C(c2ccc(F)cc2)N=C(c2ccc(C(F)(F)F)nc2)N1 (configuration not stated)
- Potency: inconclusive: 41.1 µM [inhibitor, single point]
